Reference: patent US10160948B2, “Pluripotent embryonic-like stem cells, compositions, methods and uses thereof” (ABT HOLDING COMPANY, priority 1999, dated 2018)
At least one structure is not confirmed: it was looked up by name or label, or the drawing left a doubt.

Legend:
progenitor stem cells = test: Proliferation and phenotypic responses to bioactive factors: progenitor cells; assay type: cell-based; settings: presence and approximate distribution of differentiated phenotypes within the culture wells
Text: Having access to mixed populations of progenitor stem cells, progenitor stem cell clones, and pluripotent stem cell clones permits one to address the influence of various bioactive factors (e.g. recombinant growth factors, purified compounds, and novel inductive factors) on the growth characteristics and phenotypic expression of these stem cells.
Cryopreserved cells are thawed and plated in MSC-1 at 5, 10, or 20×10^3 cells per well of gelatinized 24-well plates following the standard protocol. Twenty-four hours after initial plating the medium is changed to testing medium (TM) 1 to 6 (TM-1, TM-2, TM-3, TM-4, TM-5, or TM-6). TM-1 to TM-4 consist of Ultraculture (cat. no. 12-725B, lot. nos. OMO455 [TM-1], 1M1724 [TM-2], 2M0420 [TM-3], or 2M0274 [TM-4], Bio-Whittaker, Walkersville, Md.), medium (EMEM or Opti-MEM 0.01 mM β-mercaptoethanol), and 1% (v/v) antibiotic-antimycotic, pH 7.4. TM-5 consists of 98% (v/v) medium, 1% (v/v) HS, and 1% (v/v) antibiotic-antimycotic, pH 7.4. TM-6 consists of 98.5% (v/v) medium, 0.5% (v/v) HS, and 1% (v/v) antibiotic-antimycotic, pH 7.4. […] Four testing media (TM#'s 1-4), each containing various concentrations of Ultraculture, were used as. […]

[1] = test system: phenotypic expression markers (ectodermal, mesodermal, endodermal, embryonic); test: Immunochemical and histochemical phenotypic analysis of human cell lines incubated with serum + insulin (I) + dexamethasone (D); assay type: cell-based
Experimental: Additional immunochemical and histochemical studies were performed with a series of human cell lines. Human cells CF-NHDF2 (derived from person dermis) were propogated to various doubling numbers (cell doublings of between 12 and 47), and examined, as above, for multiple induced mesodermal, ectodermal, endodermal and embryonic lineages. Human cells CM-SkM2 and CF-SkM2, were similarly examined, after propogation to 12 cell doublings. TABLES 7-9 provides the results of examination of the human cells CF-NHDF2 at progressive cell doublings, under different growth conditions. TABLE 10 provides the results of examination of the human cells CM-SkM2, and CF-SkM2 at progressive cell doublings, under different growth conditions.
Phenotypic Analysis. The cryopreserved cells were thawed and seeded at 1×10^3 cells per well of 1% gelatinized 96-well plates (Corning, Corning, N.Y.).15,16 The cell lines were incubated with CM only (non-induced) or CM+insulin and/or dexamethasone in a comparison/contrast analysis system to ascertain induced phenotypic expression.7,15 In this assay, insulin accelerates phenotypic expression of lineage-committed progenitor cells but has no effect on the induction of lineage-commitment and subsequent phenotypic expression in pluripotent cells.
Cells were cultured for 30-56 days in CM, CM+[…] insulin, or CM+10^−6M Dexamethasone+/−insulin+1%, 5%, or 10% horse serum. […]

C[C@@H]1C[C@H]2[C@@H]3CCC4=CC(=O)C=C[C@]4(C)[C@@]3(F)[C@@H](O)C[C@]2(C)[C@@]1(O)C(=O)CO [Dex, dexamethasone]
Phenotypic Expression, Progenitor (progenitor stem cells): All++
effect on morphology and antigen staining of NHDF2 and PAL3 cells [1]: caused both a loss of embryonic antigen staining and the appearance of phenotypic expression markers for cells of ectodermal, mesodermal, and endodermal origin
